Data as given in PubChem BioAssay AID743121 (NCATS, 2013)
The deposit covers about 26,000 reagents; below is a part drawn at random. 167 of all reagents (0.63%) were called active. 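Calls are per gene from RSA p-values that are not deposited; an individual active-marked siRNA can sensitise only weakly.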 Unmarked entries are inactive. Reagents against one gene are numbered here. Not all columns of the deposit are shown.

- Test: 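Genes whose silencing strengthens cell killing by camptothecin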 (primary screen)
- System: MDA-MB-231 cells, a human breast cancer line
- Reagent: single siRNA against human genes, 20 nM siRNA (0.8 pmol per well)
- Duration: 120 h (drug added 48 h after transfection, read 72 h later)
- Challenge: camptothecin 20 nM (about EC30) for 72 h; vehicle 0.1% DMSO in parallel plates
- Measured: 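Cell viability by ATP luminescence (CellTiter-Glo) as % of non-targeting siRNA wells, and the log2 ratio of viability without drug over viability with camptothecin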
- Reading the numbers: log2 vehicle/camptothecin viability: higher = stronger sensitisation to camptothecin
- Hit rule: 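Each gene scored by redundant siRNA activity (RSA) over its individual siRNA ratios; a gene is called active at p < 0.001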

log2 vehicle/camptothecin viability, by target gene and reagent
CDKN3 (cyclin dependent kinase inhibitor 3): #1 -0.241; #2 0.663; #3 -0.236; #4 0.0423
PITPNM3 (PITPNM family member 3): #1 -0.116; #2 0.563; #3 0.0787; #4 -0.00893
CYBB (cytochrome b-245 beta chain): #1 -0.183; #2 0.471; #3 -0.326; #4 -0.408
KCNIP2 (potassium voltage-gated channel interacting protein 2): #1 -0.0169; #2 0.137; #3 0.058; #4 -0.298
HSD3B2: #1 -0.0996; #2 -0.136; #3 -0.222
WASF3 (WASP family member 3): #1 0.623; #2 -0.191; #3 -0.101; #4 0.0835
ARR3 (arrestin 3): #1 0.369; #2 -0.222; #3 -0.224
HMCN1 (hemicentin 1): #1 -0.162; #2 0.0139; #3 -0.362
TRIM59 (tripartite motif containing 59): #1 -0.217; #2 -0.0933; #3 -0.155; #4 0.0442
HTT (huntingtin): #1 -0.00351; #2 -0.313; #3 0.181; #4 -0.363
CTSC (cathepsin C): #1 -0.0641; #2 -0.545; #3 -0.493; #4 -0.516
SETDB1 (SET domain bifurcated histone lysine methyltransferase 1): #1 -0.0133; #2 -0.234; #3 -0.254; #4 0.0973
OR3A4P (olfactory receptor family 3 subfamily A member 4 pseudogene): #1 -0.619; #2 0.0107; #3 -0.59; #4 -0.214

5 consecutive records already listed, for reference:
log2 vehicle/camptothecin viability, by target gene and reagent
CYBB (cytochrome b-245 beta chain): #1 -0.183; #2 0.471; #3 -0.326; #4 -0.408
KCNIP2 (potassium voltage-gated channel interacting protein 2): #1 -0.0169
